For the assay, the target named is Arabidopsis thaliana PTR1 (Arabidopsis thaliana) (UniProt Q9M390). Description: SEC; Superdex 200 size exclusion column, final step of purification; membranes solubilised in 1% DDM; GFP-His tag cleaved off; both purified.

Results are given in words; binding and its absence hold for the method and conditions named.

B1: Arabidopsis thaliana PTR1 (protein, UniProt Q9M390 1-570)
chain: MEEKDVYTQDGTVDIHKNPANKEKTGNWKACRFILGNECCERLAYYGMGTNLVNYLESRLNQGNATAANNVTNWSGTCYITPLIGAFIADAYLGRYWTIATFVFIYVSGMTLLTLSASVPGLKPGNCNADTCHPNSSQTAVFFVALYMIALGTGGIKPCVSSFGADQFDENDENEKIKKSSFFNWFYFSINVGALIAATVLVWIQMNVGWGWGFGVPTVAMVIAVCFFFFGSRFYRLQRPGGSPLTRIFQVIVAAFRKISVKVPEDKSLLFETADDESNIKGSRKLVHTDNLKFFDKAAVESQSDSIKDGEVNPWRLCSVTQVEELKSIITLLPVWATGIVFATVYSQMSTMFVLQGNTMDQHMGKNFEIPSASLSLFDTVSVLFWTPVYDQFIIPLARKFTRNERGFTQLQRMGIGLVVSIFAMITAGVLEVVRLDYVKTHNAYDQKQIHMSIFWQIPQYLLIGCAEVFTFIGQLEFFYDQAPDAMRSLCSALSLTTVALGNYLSTVLVTVVMKITKKNGKPGWIPDNLNRGHLDYFFYLLATLSFLNFLVYLWISKRYKYKKAVGRAH
As for B1, the binding entry is “no binding”.
